One molecule from paper PMC12756081 can be followed below.

These are yes or no findings as the source states them, for the method shown. Some binding calls cover weakened binding; strength is not graded here. Where a sequence is shown, tags or fusion partners need not be part of it.

This assay has as its target T1, mIL-18Rα subunit fused to an Fc domain (mouse) (UniProt Q61098).
T1 sequence: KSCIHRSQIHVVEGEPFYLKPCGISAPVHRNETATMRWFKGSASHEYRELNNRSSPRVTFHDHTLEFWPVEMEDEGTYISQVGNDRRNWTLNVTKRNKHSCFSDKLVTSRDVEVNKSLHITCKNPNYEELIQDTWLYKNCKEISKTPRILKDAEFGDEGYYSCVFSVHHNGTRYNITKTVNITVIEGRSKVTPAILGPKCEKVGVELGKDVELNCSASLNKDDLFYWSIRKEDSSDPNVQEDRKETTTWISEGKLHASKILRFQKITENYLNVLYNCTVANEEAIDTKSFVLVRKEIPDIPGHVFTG
Nature of the assay: BLI; Octet RED96, 25 °C, 1000 rpm; mIL-18Rα fused to Fc immobilised, RMP-IL-18mutE4 or mIL-18 as analyte in kinetics buffer; both purified. In general terms: In BLI a coated tip is dipped into the sample, and binding shifts an interference pattern.

B1: wild type mIL-18 (ligand, UniProt P70380 36-192)
chain: NFGRLHCTTAVIRNINDQVLFVDKRQPVFEDMTDIDQSASEPQTRLIIYMYKDSEVRGLAVTLSVKDSKMSTLSCKNKIISFEEMDPPENIDDIQSDLIFFQKRVPGHNKMEFESSLYEGHFLACQKEDDAFKLILKKKDENGDKSVMFTLTNLHQS
For the molecule B1, the binding result was “binds”.
